Values from PubChem BioAssay AID1224826 (NIAID, 2016)

Test: 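Genes that change LPS-induced Tnf promoter activity in mouse macrophages when knocked down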 (primary screen)
System: RAW264.7 G9 macrophages from mouse bearing reporters for p65 (GFP) and the Tnf promoter (mCherry)
Reagents: siRNA pool against mouse genes, 100 nM
Duration: 16 h of LPS stimulation, after 2 days of siRNA transfection
Challenge: bacterial lipopolysaccharide (Salmonella minnesota R595), 10 ng/ml
Measurement: 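Nuclear mCherry signal of the Tnf promoter reporter measured by imaging after background removal, scaled to each plate median and turned into robust z-scores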
Reading the numbers: Tnf reporter robust z-score: higher = stronger Tnf promoter reporter signal after LPS
Rule for the call: 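a well counts as active at a score of -1.3 or below (Tlr4 knock-down control median) or above 3 (raised signal); controls and wells holding fewer than 50 cells are excluded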
Meaning of the calls: active = Tnf reporter clearly lowered or raised; inactive = no clear change in Tnf reporter
The whole screen tested about 17,000 reagents; below is an unselected part. About 1,110 of all reagents (6.6%) were called active. 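Active means lowered or raised reporter signal; replicate intensities are raw and not normalised per plate.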 A number with no mark means an inactive call. Further read-outs or replicates are left out here. No sequences are given here.

The first 2 entries, to show the layout:
| gene | Tnf reporter robust z-score | fewer than 50 cells in well |
| --- | --- | --- |
| Sack1g (scaffolding CK1 anchoring protein G) | – | fewer than 50 cells per well; well left out of calls |
| Apex1 (apurinic/apyrimidinic endonuclease 1) | 0.71 | enough cells in well |

The listing, from the first entry:
| gene | Tnf reporter robust z-score | fewer than 50 cells in well |
| --- | --- | --- |
| Sack1g (scaffolding CK1 anchoring protein G) | – | fewer than 50 cells per well; well left out of calls |
| Apex1 (apurinic/apyrimidinic endonuclease 1) | 0.71 | enough cells in well |
| Dmrt1 (doublesex and mab-3 related transcription factor 1) | 0.4 | enough cells in well |
| Alox8 (arachidonate 8-lipoxygenase) | 0.56 | enough cells in well |
| Dok7 (docking protein 7) | 0.63 | enough cells in well |
| Pear1 (platelet endothelial aggregation receptor 1) | 0.15 | enough cells in well |
| Foxe3 (forkhead box E3) | -0.28 | enough cells in well |
| Slc4a8 | -1.34 (active) | enough cells in well |
| Mtss2 (MTSS I-BAR domain containing 2) | – | fewer than 50 cells per well; well left out of calls |
| Arhgap35 (Rho GTPase activating protein 35) | 0.37 | enough cells in well |
| Synj2bp (synaptojanin 2 binding protein) | 3.92 (active) | enough cells in well |
| Or10ab5 (olfactory receptor family 10 subfamily AB member 5) | 0.39 | enough cells in well |
| Snx17 (sorting nexin 17) | -1.12 | enough cells in well |
| Sertm1 (serine rich and transmembrane domain containing 1) | 1.62 | enough cells in well |
| Dhcr24 (24-dehydrocholesterol reductase) | -0.5 | enough cells in well |
| Flrt3 (fibronectin leucine rich transmembrane protein 3) | 0.49 | enough cells in well |
| Sowahc (sosondowah ankyrin repeat domain family member C) | – | fewer than 50 cells per well; well left out of calls |
| Eme1 (essential meiotic structure-specific endonuclease 1) | -0.69 | enough cells in well |
| Uox (urate oxidase) | – | fewer than 50 cells per well; well left out of calls |
| Mthfs (5, 10-methenyltetrahydrofolate synthetase) | -0.92 | enough cells in well |
| Fam98b (family with sequence similarity 98, member B) | 0.87 | enough cells in well |
| Rnf150 (ring finger protein 150) | 1.08 | enough cells in well |
| Ggt6 (gamma-glutamyltransferase 6) | 1.09 | enough cells in well |
| Cpsf1 (cleavage and polyadenylation specific factor 1) | 0.87 | enough cells in well |
